Measured values reported in publication doi:10.1101/2020.12.21.423744.

By UniProt entry, the sequences of proteins in these tests, tags left out.
UniProt Q86WV6, whole entry: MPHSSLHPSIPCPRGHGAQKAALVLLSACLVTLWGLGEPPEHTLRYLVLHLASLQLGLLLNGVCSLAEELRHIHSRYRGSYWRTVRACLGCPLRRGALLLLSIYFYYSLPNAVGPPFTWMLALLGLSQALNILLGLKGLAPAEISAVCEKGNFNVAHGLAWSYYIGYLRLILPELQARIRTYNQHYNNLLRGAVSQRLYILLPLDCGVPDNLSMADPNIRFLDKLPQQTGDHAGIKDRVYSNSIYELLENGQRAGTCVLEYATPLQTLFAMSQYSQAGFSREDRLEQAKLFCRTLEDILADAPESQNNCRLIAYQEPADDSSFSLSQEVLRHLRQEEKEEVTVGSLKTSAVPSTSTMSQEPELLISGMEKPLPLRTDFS

B1: TBK1, Q9UHD2 1-729 (protein)
chain: MQSTSNHLWLLSDILGQGATANVFRGRHKKTGDLFAIKVFNNISFLRPVDVQMREFEVLKKLNHKNIVKLFAIEEETTTRHKVLIMEFCPCGSLYTVLEEPSNAYGLPESEFLIVLRDVVGGMNHLRENGIVHRDIKPGNIMRVIGEDGQSVYKLTDFGAARELEDDEQFVSLYGTEEYLHPDMYERAVLRKDHQKKYGATVDLWSIGVTFYHAATGSLPFRPFEGPRRNKEVMYKIITGKPSGAISGVQKAENGPIDWSGDMPVSCSLSRGLQVLLTPVLANILEADQEKCWGFDQFFAETSDILHRMVIHVFSLQQMTAHKIYIHSYNTATIFHELVYKQTKIISSNQELIYEGRRLVLEPGRLAQHFPKTTEENPIFVVSREPLNTIGLIYEKISLPKVHPRYDLDGDASMAKAITGVVCYACRIASTLLLYQELMRKGIRWLIELIKDDYNETVHKKTEVVITLDFCIRNIEKTVKVYEKLMKINLEAAELGEISDIHTKLLRLSSSQGTIETSLQDIDSRLSPGGSLADAWAHQEGTHPKDRNVEKLQVLLNCMTEIYYQFKKDKAERRLAYNEEQIHKFDKQKLYYHATKAMTHFTDECVKKYEAFLNKSEEWIRKMLHLRKQLLSLTNQCFDIEEEVSKYQEYTNELQETLPQKMFTASSGIKHTMTPIYPSSNTLVEMTLGMKKLKEEMEGVVKELAENNHILERFGSLTMDGGLRNVDCL
B2: DDX23, Q9BUQ8 1-820 (protein)
chain: MAGELADKKDRDASPSKEERKRSRTPDRERDRDRDRKSSPSKDRKRHRSRDRRRGGSRSRSRSRSKSAERERRHKERERDKERDRNKKDRDRDKDGHRRDKDRKRSSLSPGRGKDFKSRKDRDSKKDEEDEHGDKKPKAQPLSLEELLAKKKAEEEAEAKPKFLSKAEREAEALKRRQQEVEERQRMLEEERKKRKQFQDLGRKMLEDPQERERRERRERMERETNGNEDEEGRQKIREEKDKSKELHAIKERYLGGIKKRRRTRHLNDRKFVFEWDASEDTSIDYNPLYKERHQVQLLGRGFIAGIDLKQQKREQSRFYGDLMEKRRTLEEKEQEEARLRKLRKKEAKQRWDDRHWSQKKLDEMTDRDWRIFREDYSITTKGGKIPNPIRSWKDSSLPPHILEVIDKCGYKEPTPIQRQAIPIGLQNRDIIGVAETGSGKTAAFLIPLLVWITTLPKIDRIEESDQGPYAIILAPTRELAQQIEEETIKFGKPLGIRTVAVIGGISREDQGFRLRMGCEIVIATPGRLIDVLENRYLVLSRCTYVVLDEADRMIDMGFEPDVQKILEHMPVSNQKPDTDEAEDPEKMLANFESGKHKYRQTVMFTATMPPAVERLARSYLRRPAVVYIGSAGKPHERVEQKVFLMSESEKRKKLLAILEQGFDPPIIIFVNQKKGCDVLAKSLEKMGYNACTLHGGKGQEQREFALSNLKAGAKDILVATDVAGRGIDIQDVSMVVNYDMAKNIEDYIHRIGRTGRAGKSGVAITFLTKEDSAVFYELKQAILESPVSSCPPELANHPDAQHKPGTILTKKRREETIFA
B3: AATF (protein, UniProt Q9NY61 1-560)
chain: MAGPQPLALQLEQLLNPRPSEADPEADPEEATAARVIDRFDEGEDGEGDFLVVGSIRKLASASLLDTDKRYCGKTTSRKAWNEDHWEQTLPGSSDEEISDEEGSGDEDSEGLGLEEYDEDDLGAAEEQECGDHRESKKSRSHSAKTPGFSVQSISDFEKFTKGMDDLGSSEEEEDEESGMEEGDDAEDSQGESEEDRAGDRNSEDDGVVMTFSSVKVSEEVEKGRAVKNQIALWDQLLEGRIKLQKALLTTNQLPQPDVFPLFKDKGGPEFSSALKNSHKALKALLRSLVGLQEELLFQYPDTRYLVDGTKPNAGSEEISSEDDELVEEKKQQRRRVPAKRKLEMEDYPSFMAKRFADFTVYRNRTLQKWHDKTKLASGKLGKGFGAFERSILTQIDHILMDKERLLRRTQTKRSVYRVLGKPEPAAQPVPESLPGEPEILPQAPANAHLKDLDEEIFDDDDFYHQLLRELIERKTSSLDPNDQVAMGRQWLAIQKLRSKIHKKVDRKASKGRKLRFHVLSKLLSFMAPIDHTTMNDDARTELYRSLFGQLHPPDEGHGD

Assays:
[1] = target: STING-GFP (STimulator of INterferon Genes fused to GFP), Q86WV6; assay: affinity purification with mass spectrometry; details: remark: other sources report otherwise
[2] = target: STING-GFP (STimulator of INterferon Genes fused to GFP) (UniProt Q86WV6); assay: affinity purification with mass spectrometry

| Binder | binding [1] | binding [2] |
| --- | --- | --- |
| B1 | no binding | – |
| B2 | binds | – |
| B3 | – | binds |

These are yes or no findings as the source states them, for the method shown. In cells and extracts the contact can be indirect. A yes stands for co-enrichment or nearness to the bait. Other partners may have been found. For part of these data: No binding means not detected with the bait.
